Publication PMC12037078
Results are given in words; binding and its absence hold for the method and conditions named. In cells and extracts the contact can be indirect. Here binding means that the protein was enriched with, or labelled near, the bait; the list need not be complete. Sequences can lack the tags named with a protein. Blank lines part the entries; values can stand above or below the molecule they belong to.

Chains of the proteins cited; added tags and fusions are not shown.
UniProt Q96CX2: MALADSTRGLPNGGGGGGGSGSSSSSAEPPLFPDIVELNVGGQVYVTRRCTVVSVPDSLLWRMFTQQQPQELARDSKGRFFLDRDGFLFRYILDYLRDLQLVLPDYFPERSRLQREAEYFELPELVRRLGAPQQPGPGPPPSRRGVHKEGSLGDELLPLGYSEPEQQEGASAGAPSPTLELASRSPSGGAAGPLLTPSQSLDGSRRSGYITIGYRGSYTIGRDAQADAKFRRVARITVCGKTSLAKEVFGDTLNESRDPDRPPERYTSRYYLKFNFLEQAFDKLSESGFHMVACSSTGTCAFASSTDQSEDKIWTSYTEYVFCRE
UniProt P54105: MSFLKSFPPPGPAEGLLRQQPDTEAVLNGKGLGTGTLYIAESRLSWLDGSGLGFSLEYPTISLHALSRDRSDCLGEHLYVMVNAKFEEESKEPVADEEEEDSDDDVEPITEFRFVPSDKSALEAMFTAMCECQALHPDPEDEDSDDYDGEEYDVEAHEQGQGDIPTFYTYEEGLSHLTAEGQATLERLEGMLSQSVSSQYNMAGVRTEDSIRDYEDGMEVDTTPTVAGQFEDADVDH
UniProt P98175: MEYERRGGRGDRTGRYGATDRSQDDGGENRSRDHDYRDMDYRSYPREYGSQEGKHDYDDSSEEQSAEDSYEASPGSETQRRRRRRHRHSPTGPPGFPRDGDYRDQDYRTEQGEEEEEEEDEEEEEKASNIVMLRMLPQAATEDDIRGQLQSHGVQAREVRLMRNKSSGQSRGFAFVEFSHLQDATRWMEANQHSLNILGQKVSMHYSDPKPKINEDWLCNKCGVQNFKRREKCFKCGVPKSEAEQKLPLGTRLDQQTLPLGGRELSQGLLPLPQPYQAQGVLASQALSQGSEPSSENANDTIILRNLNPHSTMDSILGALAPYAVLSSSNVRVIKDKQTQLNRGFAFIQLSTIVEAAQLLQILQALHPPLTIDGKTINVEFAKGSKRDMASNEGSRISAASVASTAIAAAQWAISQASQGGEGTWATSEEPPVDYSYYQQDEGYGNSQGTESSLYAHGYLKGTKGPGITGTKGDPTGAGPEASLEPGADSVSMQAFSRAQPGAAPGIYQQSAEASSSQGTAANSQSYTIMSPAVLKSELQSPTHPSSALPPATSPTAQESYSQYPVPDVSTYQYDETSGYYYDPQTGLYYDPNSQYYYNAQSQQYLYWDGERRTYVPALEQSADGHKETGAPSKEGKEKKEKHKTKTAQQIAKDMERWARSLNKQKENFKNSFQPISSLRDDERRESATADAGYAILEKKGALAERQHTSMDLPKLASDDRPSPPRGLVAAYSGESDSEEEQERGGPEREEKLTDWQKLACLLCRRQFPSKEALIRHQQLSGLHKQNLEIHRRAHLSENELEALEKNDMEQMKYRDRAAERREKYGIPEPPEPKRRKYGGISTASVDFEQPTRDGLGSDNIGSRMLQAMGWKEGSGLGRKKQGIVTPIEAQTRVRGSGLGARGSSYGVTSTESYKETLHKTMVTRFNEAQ

Target: T1, N-terminally Strep/FLAG-tagged PPDPF (pancreatic progenitor differentiation and proliferation factor) (human) (UniProt Q9H3Y8)
T1 sequence: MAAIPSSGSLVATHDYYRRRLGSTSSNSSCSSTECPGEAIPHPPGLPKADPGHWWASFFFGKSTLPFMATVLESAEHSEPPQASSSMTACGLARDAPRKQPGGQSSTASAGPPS
Experiment: affinity purification with mass spectrometry; SILAC (K0/R0 against K8/R10, labels also switched) in HEK293T cells transfected with Strep/FLAG-PPDPF or a vector control; bait and associated proteins purified on StrepTactin resin, eluted with desthiobiotin; eluates mixed 1:1; Q-Exactive; n = 4

Molecule: KCTD12 (endogenous, HEK293T) (from UniProt Q96CX2 1-325)
binding: binds

Molecule: CLNS1A (from UniProt P54105 1-237)
binding: binds

B1: MAGED1 (endogenous, HEK293T) (protein, UniProt Q9Y5V3 1-778)
chain: MAQKMDCGAGLLGFQAEASVEDSALLMQTLMEAIQISEAPPTNQATAAASPQSSQPPTANEMADIQVSAAAARPKSAFKVQNATTKGPNGVYDFSQAHNAKDVPNTQPKAAFKSQNATPKGPNAAYDFSQAATTGELAANKSEMAFKAQNATTKVGPNATYNFSQSLNANDLANSRPKTPFKAWNDTTKAPTADTQTQNVNQAKMATSQADIETDPGISEPDGATAQTSADGSQAQNLESRTIIRGKRTRKINNLNVEENSSGDQRRAPLAAGTWRSAPVPVTTQNPPGAPPNVLWQTPLAWQNPSGWQNQTARQTPPARQSPPARQTPPAWQNPVAWQNPVIWPNPVIWQNPVIWPNPIVWPGPVVWPNPLAWQNPPGWQTPPGWQTPPGWQGPPDWQGPPDWPLPPDWPLPPDWPLPTDWPLPPDWIPADWPIPPDWQNLRPSPNLRPSPNSRASQNPGAAQPRDVALLQERANKLVKYLMLKDYTKVPIKRSEMLRDIIREYTDVYPEIIERACFVLEKKFGIQLKEIDKEEHLYILISTPESLAGILGTTKDTPKLGLLLVILGVIFMNGNRASEAVLWEALRKMGLRPGVRHPLLGDLRKLLTYEFVKQKYLDYRRVPNSNPPEYEFLWGLRSYHETSKMKVLRFIAEVQKRDPRDWTAQFMEAADEALDALDAAAAEAEARAEARTRMGIGDEAVSGPWSWDDIEFELLTWDEEGDFGDPWSRIPFTFWARYHQNARSRFPQTFAGPIIGPGGTASANFAANFGAIGFFWVE
binding: binds

B4: COPRS (protein, UniProt Q9NQ92 1-184)
chain: MDLQAAGAQAQGAAEPSRGPPLPSARGAPPSPEAGFATADHSSQERETEKAMDRLARGTQSIPNDSPARGEGTHSEEEGFAMDEEDSDGELNTWELSEGTNCPPKEQPGDLFNEDWDSELKADQGNPYDADDIQESISQELKPWVCCAPQGDMIYDPSWHHPPPLIPYYSKMVFETGQFDDAED
binding: binds

Next, values leading:

binding: binds
Molecule: RBM10 (from UniProt P98175 1-930)

binding: binds
B2: RIOK1 (protein, UniProt Q9BRS2 1-568)
chain: MDYRRLLMSRVVPGQFDDADSSDSENRDLKTVKEKDDILFEDLQDNVNENGEGEIEDEEEEGYDDDDDDWDWDEGVGKLAKGYVWNGGSNPQANRQTSDSSSAKMSTPADKVLRKFENKINLDKLNVTDSVINKVTEKSRQKEADMYRIKDKADRATVEQVLDPRTRMILFKMLTRGIITEINGCISTGKEANVYHASTANGESRAIKIYKTSILVFKDRDKYVSGEFRFRHGYCKGNPRKMVKTWAEKEMRNLIRLNTAEIPCPEPIMLRSHVLVMSFIGKDDMPAPLLKNVQLSESKARELYLQVIQYMRRMYQDARLVHADLSEFNMLYHGGGVYIIDVSQSVEHDHPHALEFLRKDCANVNDFFMRHSVAVMTVRELFEFVTDPSITHENMDAYLSKAMEIASQRTKEERSSQDHVDEEVFKRAYIPRTLNEVKNYERDMDIIMKLKEEDMAMNAQQDNILYQTVTGLKKDLSGVQKVPALLENQVEERTCSDSEDIGSSECSDTDSEEQGDHARPKKHTTDPDIDKKERKKMVKEAQREKRKNKIPKHVKKRKEKTAKTKKGK

binding: binds
B3: USP15 (enzyme, UniProt Q9Y4E8 1-981)
chain: MAEGGAADLDTQRSDIATLLKTSLRKGDTWYLVDSRWFKQWKKYVGFDSWDKYQMGDQNVYPGPIDNSGLLKDGDAQSLKEHLIDELDYILLPTEGWNKLVSWYTLMEGQEPIARKVVEQGMFVKHCKVEVYLTELKLCENGNMNNVVTRRFSKADTIDTIEKEIRKIFSIPDEKETRLWNKYMSNTFEPLNKPDSTIQDAGLYQGQVLVIEQKNEDGTWPRGPSTPKSPGASNFSTLPKISPSSLSNNYNNMNNRNVKNSNYCLPSYTAYKNYDYSEPGRNNEQPGLCGLSNLGNTCFMNSAIQCLSNTPPLTEYFLNDKYQEELNFDNPLGMRGEIAKSYAELIKQMWSGKFSYVTPRAFKTQVGRFAPQFSGYQQQDCQELLAFLLDGLHEDLNRIRKKPYIQLKDADGRPDKVVAEEAWENHLKRNDSIIVDIFHGLFKSTLVCPECAKISVTFDPFCYLTLPLPMKKERTLEVYLVRMDPLTKPMQYKVVVPKIGNILDLCTALSALSGIPADKMIVTDIYNHRFHRIFAMDENLSSIMERDDIYVFEININRTEDTEHVIIPVCLREKFRHSSYTHHTGSSLFGQPFLMAVPRNNTEDKLYNLLLLRMCRYVKISTETEETEGSLHCCKDQNINGNGPNGIHEEGSPSEMETDEPDDESSQDQELPSENENSQSEDSVGGDNDSENGLCTEDTCKGQLTGHKKRLFTFQFNNLGNTDINYIKDDTRHIRFDDRQLRLDERSFLALDWDPDLKKRYFDENAAEDFEKHESVEYKPPKKPFVKLKDCIELFTTKEKLGAEDPWYCPNCKEHQQATKKLDLWSLPPVLVVHLKRFSYSRYMRDKLDTLVDFPINDLDMSEFLINPNAGPCRYNLIAVSNHYGGMGGGHYTAFAKNKDDGKWYYFDDSSVSTASEDQIVSKAAYVLFYQRQDTFSGTGFFPLDRETKGASAATGIPLESDEDSNDNDNDIENENCMHTN
